Our source for the binding values is paper PMC8774046.

Sequences of proteins named here, by UniProt entry; tags and fusion partners are left off. A change or cut given only in a name is not applied to a line headed by its entry.
UniProt Q9SXA1: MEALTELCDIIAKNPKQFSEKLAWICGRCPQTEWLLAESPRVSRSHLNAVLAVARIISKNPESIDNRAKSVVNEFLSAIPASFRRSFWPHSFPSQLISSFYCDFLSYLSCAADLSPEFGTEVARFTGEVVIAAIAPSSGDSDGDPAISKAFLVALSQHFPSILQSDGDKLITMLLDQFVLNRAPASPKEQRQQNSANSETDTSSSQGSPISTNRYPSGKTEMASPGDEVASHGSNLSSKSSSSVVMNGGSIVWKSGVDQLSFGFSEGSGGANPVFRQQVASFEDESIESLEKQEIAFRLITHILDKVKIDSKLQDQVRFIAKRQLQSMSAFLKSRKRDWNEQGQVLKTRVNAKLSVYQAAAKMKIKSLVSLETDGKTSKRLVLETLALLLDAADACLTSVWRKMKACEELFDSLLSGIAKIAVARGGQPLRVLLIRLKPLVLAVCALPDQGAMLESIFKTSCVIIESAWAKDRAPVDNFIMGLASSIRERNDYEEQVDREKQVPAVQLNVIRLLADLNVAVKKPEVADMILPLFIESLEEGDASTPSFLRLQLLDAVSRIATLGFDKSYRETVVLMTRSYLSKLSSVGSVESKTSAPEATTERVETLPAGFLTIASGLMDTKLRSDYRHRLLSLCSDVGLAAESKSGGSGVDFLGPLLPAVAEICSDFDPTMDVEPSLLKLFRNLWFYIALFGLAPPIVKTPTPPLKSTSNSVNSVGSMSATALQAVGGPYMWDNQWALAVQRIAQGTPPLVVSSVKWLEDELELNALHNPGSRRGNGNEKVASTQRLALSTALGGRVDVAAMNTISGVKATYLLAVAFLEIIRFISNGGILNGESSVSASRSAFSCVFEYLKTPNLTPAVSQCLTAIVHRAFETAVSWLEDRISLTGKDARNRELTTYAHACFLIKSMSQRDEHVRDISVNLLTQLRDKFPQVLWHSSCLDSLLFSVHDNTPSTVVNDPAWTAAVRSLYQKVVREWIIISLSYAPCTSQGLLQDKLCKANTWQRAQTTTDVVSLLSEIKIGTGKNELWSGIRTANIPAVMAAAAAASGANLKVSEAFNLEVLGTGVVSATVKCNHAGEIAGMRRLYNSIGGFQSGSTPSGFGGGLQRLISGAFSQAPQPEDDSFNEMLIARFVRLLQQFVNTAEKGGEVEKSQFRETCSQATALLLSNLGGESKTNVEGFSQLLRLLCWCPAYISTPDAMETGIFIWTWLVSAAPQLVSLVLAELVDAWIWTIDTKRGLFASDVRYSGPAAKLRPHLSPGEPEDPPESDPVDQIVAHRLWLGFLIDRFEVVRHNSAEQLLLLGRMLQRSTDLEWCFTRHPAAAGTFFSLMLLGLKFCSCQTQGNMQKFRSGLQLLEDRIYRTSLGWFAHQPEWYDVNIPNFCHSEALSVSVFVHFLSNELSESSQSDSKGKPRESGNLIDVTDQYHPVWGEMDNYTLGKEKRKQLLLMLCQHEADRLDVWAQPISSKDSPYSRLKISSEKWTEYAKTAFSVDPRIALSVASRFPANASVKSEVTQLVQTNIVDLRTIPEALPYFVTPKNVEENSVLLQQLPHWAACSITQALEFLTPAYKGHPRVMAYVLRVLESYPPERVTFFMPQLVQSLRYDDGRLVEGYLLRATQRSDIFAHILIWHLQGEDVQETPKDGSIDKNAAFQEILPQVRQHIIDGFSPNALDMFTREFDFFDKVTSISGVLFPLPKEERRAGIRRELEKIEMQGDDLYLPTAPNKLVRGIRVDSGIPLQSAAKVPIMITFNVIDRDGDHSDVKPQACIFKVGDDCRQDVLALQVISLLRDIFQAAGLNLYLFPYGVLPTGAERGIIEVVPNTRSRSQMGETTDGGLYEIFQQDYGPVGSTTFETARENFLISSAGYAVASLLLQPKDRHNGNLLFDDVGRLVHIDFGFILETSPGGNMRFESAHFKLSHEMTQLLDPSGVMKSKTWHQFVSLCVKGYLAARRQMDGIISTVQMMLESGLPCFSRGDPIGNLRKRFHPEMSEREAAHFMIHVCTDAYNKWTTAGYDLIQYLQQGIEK
UniProt Q9FMI8: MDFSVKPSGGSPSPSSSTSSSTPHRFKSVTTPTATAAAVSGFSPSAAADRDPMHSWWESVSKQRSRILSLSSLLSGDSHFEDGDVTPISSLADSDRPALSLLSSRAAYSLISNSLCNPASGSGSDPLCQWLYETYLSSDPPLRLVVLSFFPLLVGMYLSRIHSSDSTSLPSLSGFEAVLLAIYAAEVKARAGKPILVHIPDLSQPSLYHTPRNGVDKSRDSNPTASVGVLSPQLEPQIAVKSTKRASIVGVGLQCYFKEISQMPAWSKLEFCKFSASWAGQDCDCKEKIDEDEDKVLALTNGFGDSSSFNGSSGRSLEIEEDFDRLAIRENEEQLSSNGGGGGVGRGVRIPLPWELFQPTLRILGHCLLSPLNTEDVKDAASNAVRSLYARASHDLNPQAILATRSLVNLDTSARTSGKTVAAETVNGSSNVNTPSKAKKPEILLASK

The target in assay [1] is T1, NPGR2–mCITRINE (Arabidopsis thaliana) (UniProt Q66GN3).
T1 sequence: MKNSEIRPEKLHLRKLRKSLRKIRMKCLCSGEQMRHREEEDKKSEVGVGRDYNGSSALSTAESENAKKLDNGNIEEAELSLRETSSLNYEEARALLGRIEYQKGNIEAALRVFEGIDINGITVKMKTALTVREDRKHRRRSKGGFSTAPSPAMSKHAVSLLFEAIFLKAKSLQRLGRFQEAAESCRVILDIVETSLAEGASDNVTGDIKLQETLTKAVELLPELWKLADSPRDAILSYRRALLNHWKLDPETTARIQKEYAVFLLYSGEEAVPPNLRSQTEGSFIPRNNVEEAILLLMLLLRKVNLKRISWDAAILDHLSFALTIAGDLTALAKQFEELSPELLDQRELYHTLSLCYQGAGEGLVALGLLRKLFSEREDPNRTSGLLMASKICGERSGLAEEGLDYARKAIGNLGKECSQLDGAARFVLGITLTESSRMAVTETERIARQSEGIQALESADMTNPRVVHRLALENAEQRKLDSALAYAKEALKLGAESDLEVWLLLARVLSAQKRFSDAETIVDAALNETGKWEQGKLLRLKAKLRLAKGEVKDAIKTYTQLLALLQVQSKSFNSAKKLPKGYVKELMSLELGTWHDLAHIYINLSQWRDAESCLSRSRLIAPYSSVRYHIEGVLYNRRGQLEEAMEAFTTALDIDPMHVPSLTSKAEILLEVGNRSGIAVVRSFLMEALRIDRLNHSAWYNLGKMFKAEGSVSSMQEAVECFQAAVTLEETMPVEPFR
Description: affinity purification with mass spectrometry; IP of mCITRINE fusions from transgenic Arabidopsis lines; trypsin digest, LC-MS/MS (Orbitrap); controls myristoylation–2xmCITRINE and mCITRINE–NES–mCITRINE.

Assay [2] has as its target mCITRINE–PI4Kα1 (Arabidopsis thaliana) (UniProt Q9SXA1). The description is as above.

These are yes or no findings as the source states them, for the method shown. In cells and extracts the contact can be indirect. These calls come from enrichment with a bait or labelling near it, and not all partners need be listed.

Take “PI4Kα1 (endogenous, native) (from UniProt Q9SXA1 1-2028) (enzyme)”: the binding result in assay [1] is “binds”.

For the substance “HYCCIN-CONTAINING2 (endogenous) (from UniProt Q9FMI8)”, the binding entry in assay [1] and in assay [2] was “binds” each time.
